# In PubChem BioAssay AID624291 (National Center for Advancing Translational Sciences (NCATS), 2012):
# Hit rate of the full screen: of about 350,000 compounds, about 220 (0.063%) were called active. The shares of active, inactive and inconclusive entries below differ from those in the screen. Calls follow the shape of the dose curve; as a rule, active = well fitted activation curve with a large enough effect; inconclusive = small, poorly fitted or top-dose-only effect; inactive = no such curve, though single readings can be large or run the other way. Potencies of inconclusive entries are doubtful fits and often do not repeat.
# Experiment: qHTS for Activators of Integrin-Mediated Alleviation for Muscular Dystrophy; also: nearly all actives have a fitted effect of over 60% in size;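 as to activation: 100% = response of the positive control SU9516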
# Conditions: alpha7betagal myoblasts, beta-gal FDG fluorescence, 48 h; activation: at 38.3 µM (top of the series)
# Procedure, shortened: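 alpha7betagal+/- myoblasts (passage 13, 250/well) treated 48 h at 37C with compounds at 1:260 dilution of DMSO stock. Lysed, then beta-galactosidase activity read as FDG fluorescence (ex 480/em 540) after 30 min, with pre-read for autofluorescence.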
# Potency is read from the fitted curve at half-maximal effect.
Structure (SMILES),Potency,activation
CCC1CN(C(=O)N2CCC(C(=O)NCc3ccco3)CC2)c2cc(C)ccc2O1 (stereo unspecified),"inconclusive: 5.62 µM [activator, partial curve, poor fit]",
COc1ccc(C)cc1-n1cnnn1,"inconclusive: 2.51 µM [activator, partial curve, poor fit]",
O=C(NCc1cccc(Cl)c1)c1ccc2c(c1)OCCO2,inactive,
COc1cc(/C=N/NC(=O)Cc2ccccc2)ccc1Oc1ccc([N+](=O)[O-])cc1[N+](=O)[O-],inactive,
O=C(CN(C(=O)c1csnn1)c1ccc2c(c1)OCCO2)NCc1ccccc1,"inconclusive: 14.1 µM [activator, single point]",
NS(=O)(=O)c1ccc2nc(NC(=O)CS(=O)(=O)c3ccccc3)sc2c1,"inconclusive: 5.62 µM [activator, single point]",
CCOC(=O)C1=C(C)NC(=O)NC1c1ccc(-c2ccc(F)cc2)o1 (stereo unspecified),"inconclusive: 28.2 µM [activator, single point]",
CCOC(=O)c1ccc(NC(=O)COc2ccccc2CNCCO)cc1,"inconclusive: 2.51 µM [activator, partial curve, poor fit]",
COC(=O)c1cc(CNC(=O)c2sccc2-c2ccccc2)ccc1OC,"inconclusive: 5.01 µM [activator, single point]",
CCC(C(=O)NCc1ccccc1OC)c1ccccc1 (stereo unspecified),"inconclusive: 1.78 µM [activator, full curve, poor fit]",
Cc1nc(N)nc(COc2ccccc2)n1,"inconclusive: 31.6 µM [activator, partial curve, poor fit]",
COc1ccc(/C=N/N2C(C)CCCC2C)cc1OC (stereo unspecified),"inconclusive: 5.01 µM [activator, single point]",
CCn1c(C)c2c([n+]1CC)CC(C)(C)CC2=O,inactive,
Cc1ccc(NC(=O)Nn2cnnc2)cc1,"inconclusive: 1.12 µM [activator, partial curve, poor fit]",
COc1cc2c(cc1N/C=C(\C#N)c1nc(-c3ccc(F)cc3)cs1)oc1ccccc12,"inconclusive: 2.82 µM [activator, single point]",
CCOc1ccc(OCCCCn2cnc3ccccc3c2=O)cc1,"inconclusive: 5.01 µM [activator, single point]",
CC(C)C(NC(=O)OCc1ccccc1)C(=O)NCc1ccc(C(=O)O)cc1 (stereo unspecified),"inconclusive: 3.98 µM [activator, single point]",
CC(=O)Nc1ccc(NC(=O)Nc2ccc3c(c2)N(C)C(=O)CS3)cc1,inactive,
Cc1ccc(C2CC(c3cccc(Br)c3)Nc3nnnn32)cc1 (stereo unspecified),"inconclusive: 11.2 µM [activator, partial curve, poor fit]",
Cc1ccc(C(=O)N/N=C\c2cc3c(cc2Br)OCO3)cn1,inactive,
O=c1nc2ccccc2c(NS(=O)(=O)c2ccccc2)n1-c1ccccc1,"inconclusive: 28.2 µM [activator, single point]",
COc1cc(OC)cc(C(=O)N(Cc2nc(-c3cccc(C)c3)no2)C(C)C)c1,"inconclusive: 10 µM [activator, partial curve]",
Cc1ccc(NC(=O)c2cnc(SCC(=O)NCC3CCCO3)n(C)c2=O)cc1C (stereo unspecified),inactive,

# Eleven entries from above in a different format.
Structure (SMILES) | Potency | activation
CCOC(=O)c1ccc(NC(=O)COc2ccccc2CNCCO)cc1 | inconclusive: 2.51 µM [activator, partial curve, poor fit] | 
COC(=O)c1cc(CNC(=O)c2sccc2-c2ccccc2)ccc1OC | inconclusive: 5.01 µM [activator, single point] | 
CCC(C(=O)NCc1ccccc1OC)c1ccccc1 (stereo unspecified) | inconclusive: 1.78 µM [activator, full curve, poor fit] | 
Cc1nc(N)nc(COc2ccccc2)n1 | inconclusive: 31.6 µM [activator, partial curve, poor fit] | 
COc1ccc(/C=N/N2C(C)CCCC2C)cc1OC (stereo unspecified) | inconclusive: 5.01 µM [activator, single point] | 
CCn1c(C)c2c([n+]1CC)CC(C)(C)CC2=O | inactive | 
Cc1ccc(NC(=O)Nn2cnnc2)cc1 | inconclusive: 1.12 µM [activator, partial curve, poor fit] | 
COc1cc2c(cc1N/C=C(\C#N)c1nc(-c3ccc(F)cc3)cs1)oc1ccccc12 | inconclusive: 2.82 µM [activator, single point] | 
CCOc1ccc(OCCCCn2cnc3ccccc3c2=O)cc1 | inconclusive: 5.01 µM [activator, single point] | 
CC(C)C(NC(=O)OCc1ccccc1)C(=O)NCc1ccc(C(=O)O)cc1 (stereo unspecified) | inconclusive: 3.98 µM [activator, single point] | 
CC(=O)Nc1ccc(NC(=O)Nc2ccc3c(c2)N(C)C(=O)CS3)cc1 | inactive | 

# Going on with the list.

Structure (SMILES),Potency,activation
CCOC(=O)c1cnn(-c2ccccc2)c1NC(=O)C(F)(F)C(F)(F)C(F)(F)F,inactive,
ClCc1cc2ccccc2nc1Cl,"inconclusive: 5.01 µM [activator, single point]",
CC(C)c1noc2ncc(C(=O)c3cc(Cl)cc(Cl)c3O)cc12,"inconclusive: 22.4 µM [activator, single point]",
COc1ccc(C(=O)C2CCCN(C(=O)c3cnsn3)C2)c(C)c1 (stereo unspecified),"inconclusive: 5.62 µM [activator, partial curve, poor fit]",
O=C(Nc1cccc(NC(=O)C2C3CC4OC(=O)C2C4C3)c1)c1ccccc1 (stereo unspecified),"inconclusive: 5.01 µM [activator, single point]",
CCC1CN(S(=O)(=O)c2ccc3c(c2)NC(=O)CC(=O)N3)c2cc(Cl)ccc2O1 (stereo unspecified),inactive,
COc1cccc(N(CC(=O)NCCSCc2ccc(C)cc2)S(C)(=O)=O)c1,"inconclusive: 28.2 µM [activator, single point]",
O=C(c1ccccc1N(Cc1ccccc1)S(=O)(=O)c1ccccc1)N1CCOCC1,"inconclusive: 0.355 µM [activator, full curve, poor fit]",
O=C1CCCN1CCCNS(=O)(=O)c1cccc(F)c1,"inconclusive: 0.891 µM [activator, full curve, poor fit]",
CN(C)S(=O)(=O)c1cccc(NC(=S)N/N=C/c2cc(Br)ccc2O)c1,inactive,
CCCCNCCOCCOc1ccc(F)cc1,inactive,
CNC(=O)Nc1ccc2nc(C)sc2c1,inactive,
COCCn1c(N)c(C(=O)NS(=O)(=O)c2ccc(C)cc2)c(=O)[nH]c1=O,inactive,
COc1ccccc1N1CCN(C(=O)c2cc(-c3ccc(F)cc3)[nH]c2C)CC1,"inconclusive: 5.01 µM [activator, single point]",
COc1ccc(-c2nnc(OC)c3ccccc23)cc1,,inconclusive: 84.7% [activator]
CC(=O)c1ccc(C(=O)NC2CCCN(Cc3ccccc3F)C2)s1 (stereo unspecified),inactive,
CNC(=S)NNC(=O)c1sc2cc(C(F)(F)F)cnc2c1-c1cccnc1,"inconclusive: 12.6 µM [activator, partial curve, poor fit]",
Cc1cccc(OCC(=O)Nc2ccc3c(c2)nc(CCN2CCN(C)CC2)n3C)c1,inactive,
CCCN(CCC)C(=O)CSc1nc2n[nH]c(C)c2c(=N)n1-c1ccc(OCC)cc1,inactive,
O=C(/C=C/c1ccccc1)NC(NC(=S)Nc1cc(Cl)ccc1Cl)C(Cl)(Cl)Cl (stereo unspecified),inactive,
O=C(Nc1ccccc1Br)c1cc(=O)c2ccccc2o1,"inconclusive: 10 µM [activator, single point]",
O=C1CS/C(=N/N=C2C3CC4CC(C3)CC2C4)N1,inactive,
Cc1ncc([N+](=O)[O-])n1CCOC(=O)c1cc(Cl)cc(Cl)c1N,"inconclusive: 4.47 µM [activator, single point]",
